# These are yes or no findings as the source states them, for the method shown. Where a sequence is shown, tags or fusion partners need not be part of it.
# Biological target: T1, MBP-tagged Rab11B (full-length, wild type) (Toxoplasma gondii) (UniProt Q7Z158)
# T1 sequence: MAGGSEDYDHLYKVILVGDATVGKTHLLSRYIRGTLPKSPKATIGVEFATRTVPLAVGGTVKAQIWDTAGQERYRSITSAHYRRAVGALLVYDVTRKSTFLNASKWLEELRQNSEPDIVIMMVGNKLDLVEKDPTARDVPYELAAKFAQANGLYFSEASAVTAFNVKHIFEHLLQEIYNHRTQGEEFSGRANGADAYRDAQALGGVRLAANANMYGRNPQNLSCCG
# Test: pull-down; 4 µg MBP-Rab or MBP-Rab^QL held on 20 µL MBP agarose resin as bait (MBP protein binding buffer with 1 mM DTT, 1 mM PMSF, 4 °C, 2 h); 4 µg his-TBC9 or his-TBC9^R74A in 500 µL his protein binding buffer, 4 °C, 2 h; washes with 0.1% Triton X-100; Western blot with anti-His and anti-MBP; both purified
substance,measurement,value
"His-tagged TBC9 (full-length, wild type) (Toxoplasma gondii)",binding,no binding (tested: 4 µg his-TBC9 in 500 µL)
